According to US20170002081A1:
These are yes or no findings as the source states them, for the method shown. Some entries that bind do so weakly or less than the wild type.

Key:
pTG18040 = experiment: ELISA: His-tagged construct captured from CHO supernatant on anti-His tag coated wells; biotinylated antibody; streptavidin-HRP
pTG18039 = experiment: as above
[1] = molecular target: construct pTG18038 (isolated domain 1 of human CSF-1R, Histidine tag) (human) (UniProt P07333); experiment: ELISA, His-tagged construct captured by anti-His antibody, biotinylated antibody

Measured: binding

Chimeric CXIIG6 IgG1 (from UniProt P01857 1-330; P01834 1-107) (antibody)
binds: all assays above
